Test results taken from PubChem BioAssay AID463116 (University of Pittsburgh Molecular Library Screening Center, 2010).
Screen size: about 1,000 compounds; about 710 (71%) were called active. The set was probably picked from earlier hits. The inconclusive results got no clear call from the source; some entries with a clear call stand among them for comparison.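 The calls were made as follows: active = inhibition of receptor movement into the nucleus at or above a set limit in both runs, with normal cell brightness and cell count; inconclusive = limit reached in only one run, brightness and count normal; inactive = the rest.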

Assay: dynein cargo transport inhibitors, GR-EGFP translocation, confirmation, imaging, high-content imaging, GR-EGFP cells (AID 463116);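 also: dexamethasone at 1 µM final in well for 30 min; nuclear minus cytoplasmic GR-EGFP mean intensity difference in channel 2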
Conditions: 3617.4 GR-EGFP nuclear translocation imaging, dexamethasone-induced; at 20 µM; active compounds read high
In the case of `O=C(CCN1Cc2ccccc2C1)c1ccc2c(c1)OCCO2`, the inhibition is reported as inconclusive: 47%.
With `CCOC(=O)CSC1=NC(=O)/C(=C\c2ccc(Cl)cc2)S1` the inhibition was inactive: 43.2%.
With `CCN1C/C(=C/c2ccc(OC)c(O)c2)C(=O)/C(=C/c2ccc(OC)c(O)c2)C1` the inhibition was inconclusive: 47.5%.
For `CC(=O)Nc1cccc(C(=O)/C=C/c2ccc(F)cc2)c1`, the inhibition was active: 64.2%.
With `COCCCNc1nc2c(-c3ccc(Cl)cc3)nnn2c2ccccc12` the inhibition was inactive: 13.6%.
For `CCCN1C(=O)/C(=C/c2c(NCCCOC(C)C)nc3c(C)cccn3c2=O)SC1=S`, the inhibition was inconclusive: 48.6%.
For `COc1cc(/C=C/C(=O)c2ccc(C)c([N+](=O)[O-])c2)cc(OC)c1O`, the inhibition was inconclusive: 23.7%.
For `COc1ccc(-n2nc(C(=O)c3cccs3)cc(-c3nc4ccccc4[nH]3)c2=N)cc1`, the inhibition was inactive: 32.2%.
In the case of `CN(C)c1ccc(/C=C2\N=C(c3ccc(Cl)c([N+](=O)[O-])c3)NC2=O)cc1`, the inhibition is reported as active: 103%.
For `COc1ccccc1-c1nnc(Sc2nc([N+](=O)[O-])nn2C)o1`, the inhibition was active: 63.3%.
With `CCN(CC)C(=O)c1cc([N+](=O)[O-])cc2c1-c1ccc([N+](=O)[O-])cc1C2=C(C#N)C#N` the inhibition was inconclusive: 47.9%.
For `COc1ccc(CC(=O)n2[nH]c(=O)cc(C)c2=O)cc1OC`, the inhibition was inconclusive: 50.4%.
For `CC(C)(C)OC(=O)NCCc1nnc(S(=O)(=O)Cc2ccc(Cl)cc2Cl)o1`, the inhibition was inconclusive: 66.2%.
In the case of `O=C(CN(c1cccc(C(F)(F)F)c1)S(=O)(=O)c1ccc(Cl)c([N+](=O)[O-])c1)NCc1ccccc1Cl`, the inhibition is reported as inactive: 38.8%.
In the case of `Cc1cccc(C2=NC(C(F)(F)F)(C(F)(F)F)c3c(n(-c4ccc(F)cc4)c(=O)[nH]c3=O)N2)c1`, the inhibition is reported as inactive: 93.9%.
For `CN=c1scc(-c2cccs2)n1/N=C/c1ccc(O)c(O)c1O`, the inhibition was inconclusive: 50.4%.
With `Clc1cccc(-c2nc3nc4ccccc4nc3n2Cc2ccco2)c1` the inhibition was inactive: 12.8%.
In the case of `CN1CCN(C2=C(Cl)C(=O)N(c3ccc(Cl)c(Cl)c3)C2=O)CC1`, the inhibition is reported as inconclusive: 55.9%.
For `CC1=Nc2ccccc2/C1=C/c1nc(-c2ccc(C)s2)oc1O`, the inhibition was inconclusive: 52.2%.
For `CCCCCCc1cc2cc(-c3nnc(-c4ccccc4O)o3)c(=O)oc2cc1O`, the inhibition was active: 93.2%.
In the case of `S=c1[nH]nc(-c2cc(-c3ccccc3)n[nH]2)n1/N=C/C(Br)=C/c1ccccc1`, the inhibition is reported as inconclusive: 56%.
In the case of `CCOC(=O)CC1C(=O)NCCN1c1nc2ccc(C)cn2c(=O)c1/C=C1\SC(=S)N(C(C)CC)C1=O` (centres undefined), the inhibition is reported as active: 96.8%.
For `Cc1ccc(CN=Cc2[nH]c3ccc(Br)c(Cl)c3c2O)cc1`, the inhibition was active: 100%.
With `Cc1ccc2cc(CN(CC3CCCO3)C(=S)NCc3ccco3)c(=O)[nH]c2c1` (centres undefined) the inhibition was inactive: 5.93%.
For `CC1=CC(=O)C(C(C)C)=CC1=NC(=O)c1ccc(C)cc1`, the inhibition was inconclusive: 46.7%.
With `O=c1[nH]c2ccccc2c2oc(CCl)nc12` the inhibition was inconclusive: 20.2%.
In the case of `COc1ccc(-c2c(C#N)c(N)nc3sc(C(=O)c4ccccc4)c(N)c23)cc1`, the inhibition is reported as inactive: 14.1%.
In the case of `COc1ccc(C(=O)Cn2c(C)nc([N+](=O)[O-])c2Br)cc1`, the inhibition is reported as active: 86.1%.
For `N#CC(C#N)=Cc1cc2ccccc2nc1N1CCCCC1`, the inhibition was inconclusive: 52.5%.
For `CCC(=O)OCCNc1cc(Sc2nccn2C)c2nonc2c1[N+](=O)[O-]`, the inhibition was inconclusive: 50.4%.
For `CCN(CC)c1ccc(/C=C/c2cc(-c3ccccc3)c3ccccc3n2)cc1`, the inhibition was inactive: 84.5%.
For `COc1ccc(C(=O)c2sc3nc(C)cc(-c4cccs4)c3c2N)cc1`, the inhibition was inconclusive: 47.1%.
In the case of `N#CCCS(=O)(=O)c1nnnn1-c1ccccc1`, the inhibition is reported as inconclusive: 54.5%.
For `O=[N+]([O-])/C=C/c1cn(Cc2ccccc2)c2ccccc12`, the inhibition was inconclusive: 54%.
With `CC1=NOC(=O)/C1=C\c1ccc(-c2ccc(Br)cc2)o1` the inhibition was inconclusive: 54.2%.
With `COc1cc2c(cc1OC)CN(CCC(=O)c1ccc(Br)cc1)CC2` the inhibition was inconclusive: 47.1%.
With `Cc1cc(C(=O)NCCc2ccc(Cl)cc2)n(-c2ccccc2)n1` the inhibition was inactive: 16.2%.
For `Nc1ncnc(Sc2ncccn2)c1[N+](=O)[O-]`, the inhibition was inconclusive: 54%.
In the case of `Cc1cccc(CS(=O)(=O)c2nnc([C@H](Cc3ccccc3)NC(=O)OC(C)(C)C)o2)c1`, the inhibition is reported as inactive: 35.9%.
In the case of `CCCc1nc2oc3c(Cl)ncnc3c2c2c1CCCC2`, the inhibition is reported as inconclusive: 45%.
With `CN1C(=S)N(c2cccnc2)C(=O)/C1=C\c1ccc(C(C)(C)C)cc1` the inhibition was inconclusive: 51.9%.
With `Cc1cc(C)nc(Sc2ncnc(N)c2[N+](=O)[O-])n1` the inhibition was inconclusive: 56.8%.
In the case of `COC(=O)c1ccc2c(c1)C(C)(C)C(/C=C/c1ccc(O)cc1)=[N+]2C`, the inhibition is reported as inconclusive: 57.9%.
In the case of `O=C(CCl)N(Cc1ccccc1)c1ccccc1`, the inhibition is reported as active: 83.5%.
For `O=[N+]([O-])c1ccc(C2=NN(c3ccccc3)C(c3ccco3)C2)cc1` (centres undefined), the inhibition was inactive: 150%.
With `CN(c1ccccc1)c1ccc(/C=C/[N+](=O)[O-])cc1` the inhibition was inactive: -47.3%.
In the case of `O=S(=O)(c1ccccc1)c1ncc(C(F)(F)F)cc1Cl`, the inhibition is reported as active: 89.8%.
With `O=S(=O)(CCN(CCS(=O)(=O)C(F)(F)F)CC1CCCO1)C(F)(F)F` (centres undefined) the inhibition was inconclusive: 27.9%.
For `C[C@@H](NC(=O)OC(C)(C)C)c1nnc(S(=O)(=O)Cc2ccccc2)o1`, the inhibition was inconclusive: 49.4%.
For `CCC(=O)OCCNc1cc(SCCC(=O)OC)c2nonc2c1[N+](=O)[O-]`, the inhibition was active: 71.4%.
In the case of `O=C(/C=C/c1ccccn1)c1ccc(Br)cc1O`, the inhibition is reported as inconclusive: 49.5%.
In the case of `N#CCCn1cc(C=C(C#N)C#N)c(-c2ccc(-c3ccccc3)cc2)n1`, the inhibition is reported as inconclusive: 50%.
In the case of `CCCCCCN1C=CC(=C/C=C(\C#N)C(=O)OCC)C=C1`, the inhibition is reported as inconclusive: 12.4%.
In the case of `CCN(Cc1ccc(OC)c(F)c1)C(=O)CCl`, the inhibition is reported as inconclusive: 52%.
In the case of `CS(=O)(=O)c1ccc(S(=O)CC(=O)Oc2ccc(Cl)cc2)c([N+](=O)[O-])c1` (centres undefined), the inhibition is reported as active: 57.1%.
For `CCOc1ccc(/C=C/[N+](=O)[O-])c2ccccc12`, the inhibition was inactive: 19.6%.
For `O=C1c2cc([N+](=O)[O-])cc3cc([N+](=O)[O-])cc(c23)C(=O)N1c1ccccn1`, the inhibition was inactive: 24.7%.
With `CCOC(=O)C1CCCN(C(=O)Cn2sc3nc(C)cc(C)c3c2=O)C1` (centres undefined) the inhibition was inconclusive: 57.1%.
In the case of `COc1ccc(N(C(=O)CCl)C(C(=O)NCCc2ccccc2)c2cccs2)cc1Cl` (centres undefined), the inhibition is reported as active: 94.6%.
With `Cc1ccc(N2C(=O)c3cccc4c(N)ccc(c34)C2=O)c2cccnc12` the inhibition was inconclusive: 72.4%.
For `C=CCSc1nnc(C)c(/C=C/Nc2ccc(Cl)cc2)n1`, the inhibition was active: 114%.
For `Cc1cc(NC(=O)CCCS(=O)(=O)c2nc(-c3cccs3)cc(C(F)(F)F)n2)no1`, the inhibition was inconclusive: 53.2%.
In the case of `C/C=C(\CS(=O)(=O)c1ccccc1)S(=O)(=O)c1ccccc1`, the inhibition is reported as inconclusive: 51.7%.
In the case of `O=C(OCCN1C(=O)c2cccc3c(N4CCOCC4)ccc(c23)C1=O)c1cccc(Cl)c1`, the inhibition is reported as inconclusive: 48.9%.
